Here are results for two substances from PMC8476571.

No constants are given. Whether binding was seen depends on the method and setting. Binding seen in cells or lysates may run through a third protein. Binding calls can cover weak binding; strength is not graded here. Where a sequence is shown, tags or fusion partners need not be part of it.

This assay addresses T1, Lactococcus lactis Csm2 (LlCsm2) with N-terminal His6-tag (Lactococcus lactis) (UniProt L0CFW2).
T1 sequence: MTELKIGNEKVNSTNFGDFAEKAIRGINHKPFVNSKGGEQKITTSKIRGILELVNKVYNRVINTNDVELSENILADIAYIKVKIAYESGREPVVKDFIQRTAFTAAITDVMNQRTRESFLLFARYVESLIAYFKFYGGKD
Description: co-purification (Ni-NTA affinity, then size exclusion); all Csm subunits and the crRNA co-expressed in E. coli from one plasmid; complex isolated by the N-terminal His6-tag on LlCsm2; size-exclusion column in 20 mM HEPES pH 7.5, 200 mM NaCl, 5 mM MgCl2, 14 mM 2-mercaptoethanol; the complex is a ribonucleoprotein with crRNA. A general note: In gel filtration, larger molecules generally elute earlier.

On to “Lactococcus lactis Csm1 (LlCsm1) (enzyme)”, for which the binding entry is given as “binds”. For Lactococcus lactis Csm1 H13A (enzyme), the binding result is recorded as “binds”.
